# According to PubChem BioAssay AID493014 (National Center for Advancing Translational Sciences (NCATS), 2011):
# Hit rate of the full screen: of about 340,000 compounds, about 170 (0.05%) were called active. Inconclusive means that the source gave no clear call. Such entries were picked first, then a sample of the others. The call rests on the fitted dose curve; in most records, active means well fitted inhibition curve with a large enough effect in the signal ratio, with a control signal flat (not every such curve was filed as active); inconclusive means small, poorly fitted or top-dose-only effect, or effect the other way, or a change in a side signal; inactive means flat fitted curve, though single readings scatter; the % refers to the signal ratio. Potencies beside an inconclusive call are fits to weak or partial responses and may not hold up.
# Assay: qHTS Assay to Find Inhibitors of Chronic Active B-Cell Receptor Signaling;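 on activity change, negative = inhibition: plate controls were basal doxycycline-induced cells for no effect and cells given 10 µM MG132 for full effect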
# Conditions: ABC-DLBCL IkBa-CBG/CBR reporter, luminescence ratio (green luciferase fused to IkBa over red control in TMD8 lymphoma cells), 4 h; activity change, negative = inhibition: at 46.1 µM (top of the series) unless noted
# Procedure, shortened: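 Doxycycline induced both beetle luciferases in TMD8 lymphoma cells; IKK-driven degradation limits the IkappaBalpha-fused green signal, while red luminescence normalises for cell number and nonspecific effects. Compounds tested up to 46 uM, 4 hrs.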
# Potency means the concentration at half of the fitted maximal effect.
SMILES,Potency,"activity change, negative = inhibition"
Cc1cccc(C(=O)NC(=S)Nc2ccccc2C(=O)O)c1,"inconclusive: 35.5 µM [rising, single point]",–
O=C(O)Cc1ccc(NC(=O)COc2ccc3ccccc3c2)cc1,"inconclusive: 12.6 µM [falling, partial curve]",–
N#Cc1ccccc1S(=O)(=O)N1CCN(C(=O)c2cc3c(s2)CCC3)CC1,"inconclusive: 16.4 µM [falling, partial curve, poor fit]",–
O=C(CSc1c2c(nc3cc(Cl)ccc13)CCCC2)NCCCN1CCOCC1,–,inconclusive: -2.61%
CC(=O)N1CCc2cc(C(=O)CN3CCCCC3)ccc21,–,inconclusive: -0.536%
Cc1nc2sc(-c3ccccc3)cc2c(=O)n1N,"inconclusive: 2.82 µM [falling, full curve]",–
CC(C)c1ccc(/C=N/NC(=O)c2c(Cl)cnn2C)cc1,"inconclusive: 23.1 µM [falling, partial curve]",–
CCc1ccc(C(C)NC(=S)NC2CCCCC2)cc1 (stereo unspecified),–,inactive
CCCC1=C(C(=O)OCC)C(c2ccco2)n2ncnc2N1 (stereo unspecified),–,inconclusive: 11.3%
N#CC1=C(N)Oc2n[nH]c(-c3ccccc3)c2C1c1cccnc1 (stereo unspecified),–,inconclusive: 10.3%
C=CCOc1ccc(C2CC(C)=NN2c2ccccc2)cc1 (stereo unspecified),–,inconclusive: 7.48%
O=c1[nH]c(NNC(=S)NCc2ccccc2)nc2c1C1(CCCCC1)Cc1ccccc1-2,–,inconclusive: 19.6%
Cc1sc2nc(SCC(=O)NCCO)n(C)c(=O)c2c1C,–,inconclusive: 1.41%
COc1ccc(NC(C)=O)cc1S(=O)(=O)N1CC=C(c2ccccc2)CC1,–,inactive
CCOC(=O)c1cc(-c2ccc(F)cc2)n(CCC(=O)NC2CCN(Cc3ccccc3)CC2)c1C,"inconclusive: 12.6 µM [falling, partial curve]",–
O=S(=O)(Nc1cccc2ncccc12)c1cccs1,"inconclusive: 2.59 µM [falling, partial curve, poor fit]",–
Cc1ccc(NC(=O)c2ccccc2OCC(=O)c2ccc(F)cc2)cc1,–,inactive
CCNc1ccc(S(=O)(=O)C(F)(F)F)cc1NC(=O)C12CCC(CC1)C2,–,inactive
C=CCN1CCN(C(=O)CSc2ccccc2)CC1,–,inactive
Nc1cccc(C(=O)OCC(=O)Nc2cccc3c2C(=O)c2ccccc2C3=O)c1,–,inconclusive: -0.028%
CCCCC(=O)NCCc1cc2c(OC)ccc(OC)c2[nH]c1=O,–,inconclusive: -5.46%

SMILES,Potency,"activity change, negative = inhibition"
CCCOc1cccc(C(=O)NC(=S)Nc2ccc(N3CCN(C)CC3)cc2)c1,–,inactive
Nc1c(N(CCC2=CCCCC2)C(=O)c2ccco2)c(=O)[nH]c(=O)n1Cc1ccccc1,"inconclusive: 20.6 µM [falling, single point]",–
C/C(=N\NC(=O)c1ccco1)c1cc2ccccc2o1,"inconclusive: 29.1 µM [falling, single point]",–
Cn1c(NC(=O)c2ccccc2)nc2ccccc21,"inconclusive: 31.6 µM [falling, partial curve]",–
O=C1/C(=C\c2cc([N+](=O)[O-])ccc2O)SC(=S)N1Cc1ccc(Cl)cc1,–,inactive
Cc1ccc(S(=O)(=O)N2CCN(C(=O)COC(=O)CSc3ccc(C)c(C)c3)CC2)c(C)c1,–,inactive
O=C(O)CSc1ncnc2nc[nH]c12,–,inactive
CCN1C(=O)c2cccc3c(S(=O)(=O)NCc4cccnc4)ccc1c23,–,inconclusive: -22.2%
Cc1ccc(S(=O)(=O)/N=C(/Nc2ccc([N+](=O)[O-])cc2)c2ccccc2)cc1,–,inconclusive: -0.939%
COc1ccc(C2Nc3ccccc3C(=O)N2NS(=O)(=O)c2ccc(C)cc2)cc1 (stereo unspecified),–,inconclusive: -3.61%
CCCS(=O)(=O)c1nc(S(=O)(=O)c2ccc(C)cc2)c(N2CCc3ccccc3C2)s1,"inconclusive: 25.9 µM [falling, single point]",–
CCOC(=O)c1c(C)[nH]c(NC(=O)NNC(=O)c2ccccc2Cl)c1C,–,inconclusive: -10.9%
O=C1N[C@@H](c2ccccc2)COC(=O)[C@H](Cc2ccc(F)cc2)CC/C=C/C[C@@H]1CC(=O)N(CCO)Cc1ccccc1,–,inconclusive: -8.02%
Nc1c(C(=O)Nc2ccc(Cl)cc2)sc2nc(N3CCOCC3)c3c(c12)CCCC3,"inconclusive: 10 µM [falling, partial curve]",–
COc1cc(C(=O)OCCCN=C2NS(=O)(=O)c3ccccc32)cc(OC)c1OC,–,inconclusive: -8.83%
COc1ccc(NC(=O)c2cc(-c3ccco3)on2)c(OC)c1,–,inconclusive: 1.62%
Cc1ccc(-c2csc3ncnc(SCC(=O)O)c23)cc1,–,inconclusive: -6.27%
CCOc1cc(/C=N\NC(=O)Cc2ccccc2)ccc1OCC(=O)Nc1ccc(C)c(C)c1,–,inactive
Cc1cc(OCC(=O)Nc2ccc(N3CCCC3)cc2)cc(C)c1Cl,–,inactive
CC(=O)C(Cc1ccccc1)NC(=O)COC(=O)c1cccc(C)c1[N+](=O)[O-] (stereo unspecified),–,inconclusive: -2.71%
CCC1Nc2ncnc(N3CCCCC3)c2N(Cc2ccc(OC)cc2)C1=O (stereo unspecified),–,inactive

# In another format: results already given
SMILES | Potency | activity change, negative = inhibition
C/C(=N\NC(=O)c1ccco1)c1cc2ccccc2o1 | inconclusive: 29.1 µM [falling, single point] | –
Cn1c(NC(=O)c2ccccc2)nc2ccccc21 | inconclusive: 31.6 µM [falling, partial curve] | –
O=C1/C(=C\c2cc([N+](=O)[O-])ccc2O)SC(=S)N1Cc1ccc(Cl)cc1 | – | inactive
Cc1ccc(S(=O)(=O)N2CCN(C(=O)COC(=O)CSc3ccc(C)c(C)c3)CC2)c(C)c1 | – | inactive
O=C(O)CSc1ncnc2nc[nH]c12 | – | inactive
CCN1C(=O)c2cccc3c(S(=O)(=O)NCc4cccnc4)ccc1c23 | – | inconclusive: -22.2%
Cc1ccc(S(=O)(=O)/N=C(/Nc2ccc([N+](=O)[O-])cc2)c2ccccc2)cc1 | – | inconclusive: -0.939%
COc1ccc(C2Nc3ccccc3C(=O)N2NS(=O)(=O)c2ccc(C)cc2)cc1 (stereo unspecified) | – | inconclusive: -3.61%
CCCS(=O)(=O)c1nc(S(=O)(=O)c2ccc(C)cc2)c(N2CCc3ccccc3C2)s1 | inconclusive: 25.9 µM [falling, single point] | –
CCOC(=O)c1c(C)[nH]c(NC(=O)NNC(=O)c2ccccc2Cl)c1C | – | inconclusive: -10.9%
O=C1N[C@@H](c2ccccc2)COC(=O)[C@H](Cc2ccc(F)cc2)CC/C=C/C[C@@H]1CC(=O)N(CCO)Cc1ccccc1 | – | inconclusive: -8.02%
Nc1c(C(=O)Nc2ccc(Cl)cc2)sc2nc(N3CCOCC3)c3c(c12)CCCC3 | inconclusive: 10 µM [falling, partial curve] | –
COc1cc(C(=O)OCCCN=C2NS(=O)(=O)c3ccccc32)cc(OC)c1OC | – | inconclusive: -8.83%
COc1ccc(NC(=O)c2cc(-c3ccco3)on2)c(OC)c1 | – | inconclusive: 1.62%
Cc1ccc(-c2csc3ncnc(SCC(=O)O)c23)cc1 | – | inconclusive: -6.27%
CCOc1cc(/C=N\NC(=O)Cc2ccccc2)ccc1OCC(=O)Nc1ccc(C)c(C)c1 | – | inactive
Cc1cc(OCC(=O)Nc2ccc(N3CCCC3)cc2)cc(C)c1Cl | – | inactive
CC(=O)C(Cc1ccccc1)NC(=O)COC(=O)c1cccc(C)c1[N+](=O)[O-] (stereo unspecified) | – | inconclusive: -2.71%
CCC1Nc2ncnc(N3CCCCC3)c2N(Cc2ccc(OC)cc2)C1=O (stereo unspecified) | – | inactive

# The list continues.

SMILES,Potency,"activity change, negative = inhibition"
O=C(Nc1ccc2ccccc2c1)Nc1ccc2snnc2c1,"inconclusive: 0.461 µM [rising, partial curve]",–
CCn1nc(NC(=O)Cc2ccc(OC)cc2)c2cc3cccc(C)c3nc21,–,inconclusive: -4.12%
CC(=O)c1ccc(N=Nc2ccc(N(C)C)cc2)cc1,–,inconclusive: 8.71%
Cc1c(C(=O)NCCc2ccc3c(c2)OCCO3)oc2ccccc12,"inconclusive: 3.66 µM [falling, full curve, poor fit]",–
CC(=O)Nc1cccc(NC(=O)c2ccc([N+](=O)[O-])cc2Cl)c1,–,inconclusive: 1.25%
Cc1c(Cl)cccc1-c1ccc(C(=O)N2CCN(c3ccc([N+](=O)[O-])cc3)CC2)o1,–,inactive
Fc1ccc(NC(=S)NCc2cccs2)cc1,–,inconclusive: -9.72%
COc1ccc(OCCSc2ccc(S(=O)(=O)N3CCCC3)cn2)cc1,–,inactive
O=C(CN1C(=O)S/C(=C\c2cccc(Cl)c2)C1=O)NCCCn1ccnc1,"inconclusive: 28.2 µM [falling, single point]",–
CCN1CCN(C(=O)CCc2nnc(CCc3ccc(OC)cc3)o2)[C@@H](C)C1=O,–,inconclusive: 1.44%
Cc1ccc(-n2ncc3c(=O)[nH]c(SCC(=O)NCC4CCCO4)nc32)cc1 (stereo unspecified),–,inconclusive: -13.7%
Cc1ccc(C(=O)NC2CCC(C)CC2)s1 (stereo unspecified),"inconclusive: 5.17 µM [falling, single point]",–
FC(F)(F)c1ccc2c(c1)nc1n2CCCC1,–,inconclusive: 8.23%
CCSc1nnc(NC(=O)CSC2=NCCS2)s1,"inconclusive: 35.5 µM [falling, single point]",–
CCCNC(=O)c1noc2c1CCc1cc(OC)ccc1-2,"inconclusive: 28.2 µM [falling, single point]",–
COc1ccc(/C(N)=N/OC(=O)CCC2CCCC2)cc1OC,–,inconclusive: 8.69%
Brc1c(-c2ccccc2)nc2n1Cc1ccccc1-2,"inconclusive: 1 µM [activator, full curve, poor fit]",–
CSc1ccccc1NC(=O)COc1ccc(Cl)cc1C,–,inactive
Cc1ccc(C)c(S(=O)(=O)N2CCCCC2CCNC(=O)C(=O)NCCc2ccco2)c1 (stereo unspecified),–,inactive
C/C(=N\NC(=O)c1cc(C)nc2ccccc12)c1ccccn1,"inconclusive: 18.4 µM [falling, partial curve, poor fit]",–
COc1ccc(NC(=O)Nc2ccccc2SC)cc1,"inconclusive: 5.62 µM [rising, single point]",–

SMILES,Potency,"activity change, negative = inhibition"
Cc1noc(NS(=O)(=O)c2ccc(N/C=C\C(=O)c3cccc4ccccc34)cc2)c1C,"inconclusive: 20 µM [rising, single point]",–
N/C(CS(=O)(=O)c1ccccn1)=N\OC(=O)c1ccccc1Cl,–,inactive
CCc1cc(C=NC2CCCCC2)c(O)s1,–,inconclusive: 3.78%
Cc1sc(NC(=O)CN(C(=O)c2ccccc2F)C2CCCC2)c(C(N)=O)c1C,"inconclusive: 2.82 µM [rising, full curve, poor fit]",–
Cc1cc2nn(-c3cccc4ccccc34)nc2cc1N,–,inactive
CC1=NNC(=O)C1Cc1ccccc1C (stereo unspecified),–,inconclusive: 2.93%
Cc1ccc(CC(=O)Nc2cccc(C#N)c2)cc1,–,inconclusive: 2.78%
CC(Oc1ccc(Cl)cc1)C(=O)NCCN1C(=O)S/C(=C\c2cccnc2)C1=O (stereo unspecified),"inconclusive: 20.6 µM [falling, single point]",–
C=CCC[C@H](Cc1ccc(F)cc1)C(=O)OC[C@@H](Cc1c[nH]c2ccccc12)NC(=O)[C@H](CC=C)CC(=O)NCCO,–,inconclusive: -11.4%
CCc1ccc(CN(C)C(=O)c2cc(COc3ccc(OC)cc3Cl)on2)nc1,–,inactive
COc1cc(C(=O)NCC(=O)Nc2ccc(F)c(F)c2)ccc1OCC(=O)N1CCOCC1,–,inactive
CN(Cc1nc(Cc2ccccc2F)no1)[C@@H]1CS(=O)(=O)C[C@H]1O,–,inconclusive: 11.5%
COC(=O)[C@@H](NC(=O)Nc1ccc2c(c1)OCCO2)C(C)C,–,inconclusive: 0.928%
CSc1ccc(Cl)c(C(=O)OCC(=O)N(C)CCC#N)c1,"inconclusive: 8.91 µM [falling, partial curve]",–
O=C1c2ccccc2CCC12N=NCC2c1ccc(Br)cc1 (stereo unspecified),–,inactive
COC(=O)c1cc(OC)c(OC)cc1NC(=O)C(C)Sc1ccc(C)cc1 (stereo unspecified),–,inconclusive: 9.09%
COc1ccccc1-c1cn[nH]c1-c1ccc(OCC(=O)NN)cc1O,–,inactive
CC(C)(C)c1cc(CCC(=O)N2CCCC2)cc(C(C)(C)C)c1O,–,inactive
